Results reported in PubChem BioAssay AID2685 (National Center for Advancing Translational Sciences (NCATS), 2010).
This is one part of the list. Shown are side measurements of this screen, not its main read-out; they come without a call. Compounds called inactive in the main read-out are mostly missing here. Words in brackets tell the shape of the fitted curve; partial curves, single points and poor fits give uncertain potencies.

Experiment: qHTS Assay for Lipid Storage Modulators in Drosophila S3 Cells;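 on cell number change: cells counted by Cell Tracker Red CMTPX staining in the red channel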
Settings: BODIPY lipid droplet fluorescence, 18-24 h; for cell number change: measured here: cell count max response, cells fed with added oleic acid
Method in brief: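 Laser-scanning cytometry quantifies lipid droplet accumulation (500–530 nm total intensity; droplet/cell object ratio) in oleic acid-fed (400 uM added) Drosophila S3 cells treated with a concentration series. 20 uM Triacsin C defined 100% inhibition.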

[1] = measured here: lipid fluorescence (Fed channel) AC50, cells fed with added oleic acid
[2] = measured here: cell number channel AC50, cells fed with added oleic acid

| Structure (SMILES) | cell number change | AC50 [1] | AC50 [2] |
| --- | --- | --- | --- |
| CCC(C)NC(=O)c1ccc(CSc2nc3ccncc3n2Cc2ccc(F)cc2)cc1 (stereo unspecified) | 1.83% | 18.4 µM [falling, single point] | – |
| CC(=O)NC(c1ccc(Cl)cc1)c1c(O)ccc2ccc(O)cc12 (stereo unspecified) | -26.3% | 0.00411 µM [falling, full curve, poor fit] | – |
| Cc1cc(S(=O)(=O)NCCc2ccccc2)c(C)s1 | -31.9% | 29.1 µM [falling, partial curve, poor fit] | 14.6 µM [falling, partial curve, poor fit] |
| COc1ccccc1NC(=O)c1cc(=O)[nH]c2ccccc12 | -9.97% | 14.6 µM [rising, partial curve] | – |
| COc1cc2c(cc1OC)C(SC)=NC1(CCCC1)C2 | -24.7% | – | – |
| COC(=O)c1ccc(NC(=O)CCCN2C(=O)NC(C)(C)C2=O)cc1 | 61.2% | 13 µM [rising, partial curve] | 4.11 µM [falling, single point] |
| CNC1=C([N+](=O)[O-])CC([N+](=O)[O-])=C(N2CCNCC2)N1C | -75.5% | – | 1.84 µM [falling, partial curve, poor fit] |
| O=C(c1ccccc1)N1CCCCC(S(=O)(=O)c2ccc3ccccc3c2)C1=O (stereo unspecified) | 35.1% | 0.651 µM [falling, partial curve, poor fit] | 4.61 µM [rising, single point] |
| O=C(Nc1ccc(NC(=O)c2cccs2)cc1)c1ccc(Br)o1 | 106% | 7.31 µM [rising, partial curve] | 14.6 µM [rising, partial curve, poor fit] |
| Cc1cc(SCC(=O)OCC(=O)c2c(N)n(C)c(=O)n(C)c2=O)c(C)cc1Br | -22.3% | 1.84 µM [falling, full curve] | – |
| N#Cc1ccccc1OCCOCCNC1CCCC1 | 1.34% | – | 0.366 µM [falling, partial curve, poor fit] |
| CCC(OC(=O)c1ccco1)C(=O)NCc1ccc2c(c1)OCO2 (stereo unspecified) | 20.8% | – | – |
| Fc1ccc(-c2nc3n(n2)Cc2ccccc2-3)cc1 | 5.37% | 0.731 µM [rising, single point] | – |
| CCCS(=O)(=O)n1nc(-c2ccccc2)cc1N | -6.26% | – | – |
| S=C(NCCCc1ccccc1)Nc1ccc(Cl)cc1 | -46.5% | 23.1 µM [falling, partial curve] | 16.4 µM [falling, partial curve] |
| CC1(C)C2CCC(C2)C1(C)NC(=O)CNCC1CCCCC1 (stereo unspecified) | -2.84% | – | 6.51 µM [falling, single point] |
| O=C(NCCN1CCN(C(=O)NC2CCCCC2)CC1)NC1CCCCC1 | 9.86% | 0.116 µM [falling, single point] | – |
| COc1ccccc1/C=C/CN1CCOCC1 | 2.84% | – | 5.17 µM [falling, single point] |
| Cc1ccc(S(=O)(=O)/N=C2/C=C(Sc3ncn[nH]3)C(=O)c3ccccc32)cc1 | -40.8% | 8.2 µM [falling, partial curve] | 14.6 µM [falling, single point] |
| COc1ccc(CNC(=O)CCNS(=O)(=O)c2ccc(C)cc2)cc1 | 60.3% | – | 18.4 µM [rising, partial curve] |

| Structure (SMILES) | cell number change | AC50 [1] | AC50 [2] |
| --- | --- | --- | --- |
| COCc1cc(=O)n2[nH]c(C)cc2n1 | -20.5% | 29.1 µM [falling, partial curve] | 0.13 µM [falling, full curve, poor fit] |
| CSc1nnc(-c2ccccc2Cl)n1N | 4.17% | 23.1 µM [falling, single point] | – |
| CCc1nnc(NC(=O)CSc2nnc(-c3ccncc3)n2Cc2ccccc2)s1 | 2.68% | – | – |
| CCOC(=O)N1CCN(C(=O)CSc2nnc(-c3ccc(Cl)s3)o2)CC1 | 11.4% | 29.1 µM [rising, single point] | 2.59 µM [rising, single point] |
| Cc1cc(NC(=O)CCN2CCC(C)CC2)ccc1Br | 0.794% | 0.58 µM [rising, single point] | – |
| O=C(NCc1ccccc1Cl)C1CCCN(S(=O)(=O)c2cccc3nonc23)C1 (stereo unspecified) | 84.1% | 29.1 µM [rising, single point] | 18.4 µM [rising, single point] |
| COc1ccc(NS(=O)(=O)c2ccc(F)c(Cl)c2)cn1 | 15.2% | 29.1 µM [falling, partial curve, poor fit] | – |
| CC1CCCCN1C(=S)Nc1ccc2nc3n(c(=O)c2c1)CCCCC3 (stereo unspecified) | 30.9% | 6.51 µM [rising, single point] | 5.17 µM [rising, partial curve, poor fit] |
| Cc1nc2ccccc2n1CC(=O)N/N=C/c1cccs1 | 12.5% | 4.61 µM [falling, single point] | – |
| CC1CCC2(CC1)NC(=O)N(CC(=O)Nc1cccnc1Cl)C2=O (stereo unspecified) | 2.22% | 0.0731 µM [falling, full curve, poor fit] | – |
| CCCCn1c(N)c(N(CC(C)C)C(=O)c2cccc(S(=O)(=O)N(C)c3ccc(C)cc3)c2)c(=O)[nH]c1=O | 13.5% | 0.731 µM [falling, full curve] | – |
| Cc1ccccc1NC(=O)CSc1nc(-c2cccs2)nc2cc(=O)[nH]n12 | 30.5% | 13 µM [rising, partial curve, poor fit] | 13 µM [rising, partial curve, poor fit] |
| C#CCNC(=O)c1ccc(OCc2ccccc2)cc1Cl | 19.8% | 29.1 µM [rising, single point] | – |
| CCn1c(CCNC(=O)c2cccs2)nnc1SCC(=O)NC1CCCCC1 | -13.9% | 18.4 µM [falling, single point] | – |
| CCOc1ccc(N2C(=O)CC(N(Cc3ccco3)C(=O)CCC(=O)O)C2=O)cc1 (stereo unspecified) | 16.6% | – | – |
| CC(NC(=O)c1ccc(-c2cc(C(F)(F)F)ccc2Cl)o1)c1ccccc1 (stereo unspecified) | 6.78% | – | – |
| O=C(Nc1ccc(S(=O)(=O)N2CCCCC2)cc1)C1CC(=O)N(c2ccc(Cl)cc2)C1 (stereo unspecified) | 26.1% | 23.1 µM [falling, single point] | – |
| COc1ccccc1NC(=O)CN1C(=O)NC(C)(C)C1=O | -9.64% | 0.0731 µM [falling, full curve] | – |
| COc1ccc(NC(=O)C2CCCN2C(=O)Nc2ccc(OC)cc2)cc1 (stereo unspecified) | 6.85% | 29.1 µM [rising, single point] | – |
| COc1ccccc1OCC(=O)Nc1cc(S(=O)(=O)N2CCCCC2)ccc1N1CCCCC1 | 9.44% | 2.91 µM [rising, single point] | – |

Some values from the entries so far.
cell number change, CCCCn1c(N)c(N(CC(C)C)C(=O)c2cccc(S(=O)(=O)N(C)c3ccc(C)cc3)c2)c(=O)[nH]c1=O reads 13.5%
cell number change, CCn1c(CCNC(=O)c2cccs2)nnc1SCC(=O)NC1CCCCC1 reads -13.9%
AC50 [1], CCOC(=O)N1CCN(C(=O)CSc2nnc(-c3ccc(Cl)s3)o2)CC1 reads 29.1 µM [rising, single point]

Additional structures follow:

| Structure (SMILES) | cell number change | AC50 [1] | AC50 [2] |
| --- | --- | --- | --- |
| Cc1ccc(OCC(=O)N2CC(C)OC(C)C2)c([N+](=O)[O-])n1 (stereo unspecified) | – | 0.13 µM [rising, single point] | 0.103 µM [rising, single point] |
| CC(=O)Oc1ccc2c(=O)c(-c3nc4ccccc4s3)coc2c1 | 28.5% | – | – |
| O=[n+]1c2c(n([O-])c3c1CCCC3)CCCCC2 | 6.65% | 0.00461 µM [falling, full curve, poor fit] | – |
| O=C(CSc1nc2ccccc2c(=O)n1-c1ccc(OC(F)F)cc1)NCc1cccs1 | -3.08% | 6.51 µM [rising, single point] | – |
| CCOC(=O)C[N+]1(C)CCN(C(C)=O)CC1 | -17.4% | – | 2.91 µM [falling, single point] |
| CN(C)C1=NCCN1CC1CCCC1 | -33.5% | 0.651 µM [falling, full curve] | 0.58 µM [falling, full curve] |
| Cc1ccc(CCNC(=O)CNC(=S)N(Cc2ccccc2)Cc2cccnc2)cc1 | -4.42% | – | 2.06 µM [falling, single point] |
| Cc1cccc(N2CCN(Cc3nc(-c4cccc(Oc5ccccc5)c4)oc3C)CC2)n1 | -25.1% | 1.46 µM [falling, partial curve] | – |
| CNC(=S)N/N=C/c1c(C)nn(-c2cccc(Cl)c2)c1Cl | -23.7% | 20.6 µM [falling, single point] | – |
| CCC(C)(C)NC(=O)C(c1ccc(OC)cc1)N(C(=O)CCC(=O)Nc1cc(C)on1)C(C)(C)C (stereo unspecified) | 5.22% | 6.51 µM [rising, single point] | – |
| COc1ccccc1-c1cc(C(F)(F)F)nc(S(=O)(=O)CCCC(=O)NCc2ccc(F)cc2)n1 | -48.8% | – | 7.31 µM [falling, partial curve] |
| O=C(Nc1ccc2ccccc2n1)c1ccccc1Br | -24.6% | 23.1 µM [rising, single point] | – |
| Cc1nn(Cc2cccc(C(=O)Nn3cc([N+](=O)[O-])cn3)c2)c(C)c1[N+](=O)[O-] | 33.5% | – | 9.2 µM [rising, partial curve] |
| Cc1nn(Cc2ccccc2Cl)c(C)c1NC(=O)c1ccn(C)n1 | 4.63% | 0.092 µM [rising, full curve, poor fit] | – |
| CCc1ccc(NC(=O)Cn2cnc([N+](=O)[O-])c2)cc1 | 14.6% | 29.1 µM [rising, single point] | – |
| CCOc1ccccc1NC(=O)CCN1CCN(S(=O)(=O)c2ccc(OC)cc2)CC1 | 88.9% | – | 16.4 µM [rising, single point] |
| Cc1ccc(C(=O)OCC(=O)c2c[nH]c3ccccc23)cc1 | -5.68% | 6.51 µM [rising, single point] | 4.61 µM [rising, single point] |
| COc1ccc(Cn2nnc3c(=O)[nH]c(C4CCN(S(=O)(=O)c5ccc(C)cc5)CC4)nc32)cc1 | – | 0.206 µM [falling, full curve] | – |
